Results are given in words; binding and its absence hold for the method and conditions named. Binding seen in cells or lysates may run through a third protein. Some entries that bind do so weakly or less than the wild type. Tags and fused reporters may be left off the sequences shown.
Target: RlucII-Rab7A (UniProt P51149)
Experiment: FRET or BRET

The chains behind the UniProt entries cited, without tags or fusion partners.
UniProt P51149: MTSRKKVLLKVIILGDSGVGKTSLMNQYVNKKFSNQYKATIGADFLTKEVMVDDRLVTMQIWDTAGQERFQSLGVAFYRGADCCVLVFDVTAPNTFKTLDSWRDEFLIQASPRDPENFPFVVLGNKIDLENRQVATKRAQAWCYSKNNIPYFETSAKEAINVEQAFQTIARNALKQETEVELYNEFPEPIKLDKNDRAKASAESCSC

binding | Binder
binds | GFP10-CLN3^R334H (protein, UniProt Q13286 1-438) MGGCAGSRRRFSDSEGEETVPEPRLPLLDHQGAHWKNAVGFWLLGLCNNFSYVVMLSAAHDILSHKRTSGNQSHVDPGPTPIPHNSSSRFDCNSVSTAAVLLADILPTLVIKLLAPLGLHLLPYSPRVLVSGICAAGSFVLVAFSHSVGTSLCGVVFASISSGLGEVTFLSLTAFYPRAVISWWSSGTGGAGLLGALSYLGLTQAGLSPQQTLLSMLGIPALLLASYFLLLTSPEAQDPGGEEEAESAARQPLIRTEAPESKPGSSSSLSLRERWTVFKGLLWYIVPLVVVYFAEYFINQGLFELLFFWNTSLSHAQQYRWYQMLYQAGVFASHSSLRCCRIRFTWALALLQCLNLVFLLADVWFGFLPSIYLVFLIILYEGLLGGAAYVNTFHNIALETSDEHREFAMAATCISDTLGISLSGLLALPLHDFLCQLS
binds | GFP10-CLN3^V330F (protein, UniProt Q13286 1-438) MGGCAGSRRRFSDSEGEETVPEPRLPLLDHQGAHWKNAVGFWLLGLCNNFSYVVMLSAAHDILSHKRTSGNQSHVDPGPTPIPHNSSSRFDCNSVSTAAVLLADILPTLVIKLLAPLGLHLLPYSPRVLVSGICAAGSFVLVAFSHSVGTSLCGVVFASISSGLGEVTFLSLTAFYPRAVISWWSSGTGGAGLLGALSYLGLTQAGLSPQQTLLSMLGIPALLLASYFLLLTSPEAQDPGGEEEAESAARQPLIRTEAPESKPGSSSSLSLRERWTVFKGLLWYIVPLVVVYFAEYFINQGLFELLFFWNTSLSHAQQYRWYQMLYQAGFFASRSSLRCCRIRFTWALALLQCLNLVFLLADVWFGFLPSIYLVFLIILYEGLLGGAAYVNTFHNIALETSDEHREFAMAATCISDTLGISLSGLLALPLHDFLCQLS

Second part, the binder before the results:

Binder | binding
GFP10-CLN3^L101P (protein, UniProt Q13286 1-438) MGGCAGSRRRFSDSEGEETVPEPRLPLLDHQGAHWKNAVGFWLLGLCNNFSYVVMLSAAHDILSHKRTSGNQSHVDPGPTPIPHNSSSRFDCNSVSTAAVPLADILPTLVIKLLAPLGLHLLPYSPRVLVSGICAAGSFVLVAFSHSVGTSLCGVVFASISSGLGEVTFLSLTAFYPRAVISWWSSGTGGAGLLGALSYLGLTQAGLSPQQTLLSMLGIPALLLASYFLLLTSPEAQDPGGEEEAESAARQPLIRTEAPESKPGSSSSLSLRERWTVFKGLLWYIVPLVVVYFAEYFINQGLFELLFFWNTSLSHAQQYRWYQMLYQAGVFASRSSLRCCRIRFTWALALLQCLNLVFLLADVWFGFLPSIYLVFLIILYEGLLGGAAYVNTFHNIALETSDEHREFAMAATCISDTLGISLSGLLALPLHDFLCQLS | binds
GFP10-CLN3^E295K (protein, UniProt Q13286 1-438) MGGCAGSRRRFSDSEGEETVPEPRLPLLDHQGAHWKNAVGFWLLGLCNNFSYVVMLSAAHDILSHKRTSGNQSHVDPGPTPIPHNSSSRFDCNSVSTAAVLLADILPTLVIKLLAPLGLHLLPYSPRVLVSGICAAGSFVLVAFSHSVGTSLCGVVFASISSGLGEVTFLSLTAFYPRAVISWWSSGTGGAGLLGALSYLGLTQAGLSPQQTLLSMLGIPALLLASYFLLLTSPEAQDPGGEEEAESAARQPLIRTEAPESKPGSSSSLSLRERWTVFKGLLWYIVPLVVVYFAKYFINQGLFELLFFWNTSLSHAQQYRWYQMLYQAGVFASRSSLRCCRIRFTWALALLQCLNLVFLLADVWFGFLPSIYLVFLIILYEGLLGGAAYVNTFHNIALETSDEHREFAMAATCISDTLGISLSGLLALPLHDFLCQLS | binds
